Among the data in patent US20250263499A1 (SHENGHE CHINA BIOPHARMACEUTICAL, published 2025) are binding values, retold here.

Results are given in words; binding and its absence hold for the method and conditions named. Some binding calls cover weakened binding; strength is not graded here.

Assay [1] addresses T1, CD24 on tumor cells (MCF7, SKOV3, HT55, huCD24-MDA-MB-231, CD24-SKOV3) (human) (UniProt P25063).
T1 sequence (looked up): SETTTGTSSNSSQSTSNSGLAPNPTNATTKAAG
As to the kind of experiment: flow cytometry on MCF7 cells (MFI). In general terms: Flow cytometry measures light scatter and fluorescence of single cells or particles in a stream.

In assay [2] the target is T1, CD24 on tumor cells (MCF7, SKOV3, HT55, huCD24-MDA-MB-231, CD24-SKOV3) (human). As to the kind of experiment: flow cytometry on huCD24-MDA-MB-231 cells (MFI).

B1: humanized antibody hu-02-L1H7 (antibody, human IgG1, kappa, V domains shown)
VH: EVQLQESGPGLVKPSQTLSLTCTVSGYSITSGYTWHWIRQFPGNKLEWIGHIQYTGNTKYNPSLESRITISRDTSKNQFSLKLSSVTAADTATYYCARGSTNSNDYWGQGTLVTVSS
VL: DIVMTQSPDSLAVSLGERATINCKSSQSLLYSNDQKNYLAWYQQKPGQPPKLLIYWASTRESGVPDRFSGSGSGTDFTLTISSLQAEDVAVYYCQQYFIYPLTFGGGTKLELKR
notes: Humanized from ms-02: light chain L1, heavy chain H7
As for B1, the binding result in assay [1] and in assay [2] was “binds” throughout.
